Data taken from publication PMC9457997, “2-(Nitroaryl)-5-Substituted-1,3,4-Thiadiazole Derivatives with Antiprotozoal Activities: In Vitro and In Vivo Study” (Molecules, 2022).

Legend:
[1] = test system: L. donovani, strain MHOM-ET-67/L82 axenically grown amastigotes; assay: In vitro activity against L. donovani axenic amastigotes; format: cell-based; conditions: selectivity index
Description: Miltefosine and benznidazole were used as reference drugs. […] In vitro activity against the protozoan parasites T. b. rhodesiense, T.cruzi, L. donovani and cytotoxicity assessment against L6 cells were determined as reported previously. The following strains, parasite forms, and positive controls were used: T. b. rhodesiense STIB 900 bloodstream forms, melarsoprol (received from WHO, Arsobal Sanofi); T.cruzi Tulahuen C2C4 intracellular amastigotes, benznidazole (received from DNDi synthesized by Epichem Pty Ltd., Murdoch, Australia); L. donovani MHOM-ET-67/L82 axenically grown amastigotes and intracellular amastigotes, miltefosine (Sigma M5571).

[2] = test system: T. cruzi, strain Tulahuen C4 amastigotes; assay: In vitro activity against T. cruzi amastigotes; format: cell-based; conditions: selectivity index
Description: Although all of the compounds had been tested against Leishmania major promastigotes in our previous works, to deeper evaluate the antitrypanosomatid potential of the selected nitroimidazole derivatives, their activity was measured against L. donovani axenic amastigotes and T. cruzi amastigotes (Table 2). Miltefosine and benznidazole were used as reference drugs. Compounds 18a and 18g were also tested against L. donovani intracellular amastigotes in peritoneal murine macrophages in a further assay. […]. In vitro activity against the protozoan parasites T. b. rhodesiense, T.cruzi, L. donovani and cytotoxicity assessment against L6 cells were determined as reported previously. The following strains, parasite forms, and positive controls were used: T. b. rhodesiense STIB 900 bloodstream forms, melarsoprol (received from WHO, Arsobal Sanofi); T.cruzi Tulahuen C2C4 intracellular amastigotes, benznidazole (received from DNDi synthesized by Epichem Pty Ltd., Murdoch, Australia); L. donovani MHOM-ET-67/L82 axenically grown amastigotes and intracellular amastigotes, miltefosine (Sigma M5571). L6 rat skeletal myoblasts (ATCC CRL-1458), podophyllotoxin (Sigma P4405).

Cn1c([N+](=O)[O-])cnc1-c1nnc(N2CCOCC2)s1 [Compound 18b]
SI (IC50 in L6 cells/IC50 in L. donovani axenic amastigotes) [1]: 597 | SI (IC50 in L6 cells/IC50 in T. cruzi) [2]: 903

CC(=O)N1CCN(c2nnc(-c3ncc([N+](=O)[O-])n3C)s2)CC1 [Compound 18f]
SI (IC50 in L6 cells/IC50 in T. cruzi) [2]: >571

Cn1c([N+](=O)[O-])cnc1-c1nnc(N2CCNCC2)s1 [Compound 18c]
SI (IC50 in L6 cells/IC50 in L. donovani axenic amastigotes) [1]: 43 | SI (IC50 in L6 cells/IC50 in T. cruzi) [2]: 1123

Cn1c([N+](=O)[O-])cnc1-c1nnc(N2CCCCC2)s1 [Compound 18a]
SI (IC50 in L6 cells/IC50 in T. cruzi) [2]: >342
